## Primary screen of a compound library

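Viability assay of Plasmodium falciparum sporozoites; the read-out is not stated. The concentration is filed as 10 mM, unlikely as a test dose, so the dose is not known. The record gives no direction; compounds that gave an IC50 in retests scored well above the rest, so higher reads as lower viability. Strong results were mostly tested again. About 34,000 compounds were tested under these conditions; 0.84% (about 280) showed 50% or more at least once.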

The filed quantity is “Percent Effect” (%). The record does not define 0% and 100%; most values in the screen are far below 50% and negative numbers occur (in some assays of this library far below -100). The compounds are a random part of those screened. Two or more numbers in one place are separate tests of the same structure; such repeats can differ widely.

structure,effect
CN(C)C(CNS(=O)(=O)c1ccc(F)cc1F)c1cccn1C (centres undefined),1.063%
CN(Cc1nc2ccccc2[nH]1)C(=O)C(C)(C)n1cc(Cl)cn1,-22.28%
CC(=O)N[C@@H]1CN(Cc2ccco2)C[C@H]1c1ccc(C)o1,0.7018%
Cc1cccc(N2CCC(N3CCC4(CN(C)C(=O)O4)C3)CC2)c1C (centres undefined),-2.176%
CN1CCCC(CCC(=O)N2CCc3c(nc(CC4CC4)[nH]c3=O)C2)C1 (centres undefined),-7.007%
CCS(=O)(=O)N1CCC(c2cc3n(n2)[C@@H](C(F)(F)F)C[C@@H](C)N3)CC1,-0.1185%
CNCC[C@H]1CC(C)(C)Oc2ccc(OC)cc21,11.94%
COc1ccc(COCC(O)CNC(=O)c2cc(C)cc(C)c2)cc1 (centres undefined),-5.251%
COc1ccc(F)cc1C(C(=O)O)N1CCCN(C2CCCC2)CC1 (centres undefined),-0.1183%
CC(C)(C)c1n[nH]c(C2CN(C(=O)CCc3ccco3)CCO2)n1 (centres undefined),-0.1959%
CC(C)c1nc(CN(C)C2CCN(CC(F)(F)F)C2)no1 (centres undefined),2.952%
CCOc1ccc(C(=O)Nc2c(C)nc3ccccn3c2=O)cc1,-10.81%
O=C(NCc1ccccc1-n1cccn1)N1CCN2CCCCC2C1 (centres undefined),-9.804%
CCOc1ccnc(N2CCN(C(=O)c3ccn(C)c(=O)c3)CC2)n1,1.296%
CN(Cc1ccco1)C(=O)C1CSCN1C(=O)c1cccs1 (centres undefined),11.22%
[H][C@@]12C[C@@H](OCc3cccnc3)CN1CCN(C(=O)c1cscn1)C2,-2.191%
O=C(O)C(F)(F)F.[H][C@@]12CCN(Cc3ccsc3)C[C@@]1([H])[C@H](C(=O)NC1CC1)CCO2,-13.71%
COCC1CN(C(=O)c2cccn2C)Cc2ncnn2C1 (centres undefined),0.6543%
O=C(c1ccccn1)N1CCCC(c2ncncc2-c2ccncc2)C1 (centres undefined),-1.895%
Cc1nc(-c2ccncc2)ncc1C(C)NC(=O)C1=NN(C)C(=O)CC1 (centres undefined),-13.38%
COc1ccccc1C(C)N(C)Cc1nc2c(cnn2C)c(=O)[nH]1 (centres undefined),-6.166%
CCC(=O)N1CC[C@@H](c2ccc3ccccc3c2)[C@H](O)C1,-0.6438%
CCN1C(=O)CC[C@]12CC[C@@H](NC(=O)c1ccncc1F)CC2.O=C(O)C(F)(F)F,-20.05%
CC(Cn1cccn1)NCc1csc(-c2ccc(F)cc2)n1 (centres undefined),-49.29% & -48.36%
CCCn1cc(C(=O)n2nc(C)cc2C)c(S(=O)(=O)N2CCSCC2)n1,6.529%
c1ncn(CC2CCCCN2Cc2noc(C3CC3)n2)n1 (centres undefined),19.95%
CCN(CC)C(=O)c1nnn(Cc2ccccc2)c1OC,4.605%
O=C(Cn1cc(-c2ccccc2)ncc1=O)Nc1nnc[nH]1,-0.5198%
N#Cc1cccc(N2CC3(CCN(C(=O)C4CC=CC4)C3)CC2=O)c1 (centres undefined),-26.28%
O=C(NCc1ccccc1-n1cccn1)C1CC2(CCNCC2)CN1 (centres undefined),-13.08%
Cn1ncnc1NCc1ccccc1Cl,-4.476%
N#Cc1cccnc1NCCc1cc(F)cc2c1OCOC2,12.02%
Clc1ccc(C2NCCc3cc4c(cc32)OCCO4)cc1 (centres undefined),9.282%
CCN1CCC2(CC1)C(=O)Nc1ccc(C(=O)NC)cc12.O=C(O)C(F)(F)F,-4.825%
COc1ncccc1CNC(=O)N(Cc1ccc(F)cc1F)C1CC1,0.2241%
Cc1cccc(C2(CNC(=O)C(C)NC(N)=O)CCCC2)c1 (centres undefined),-9.829%
CC(C)OCCN1CCC(C(=O)c2cc(F)ccc2F)CC1,16.74%
Cc1ccc(N2CCCC(NCc3cccc4c3OCO4)C2)nn1 (centres undefined),-1.803%
CCC1CN(Cc2ccccc2)CCN1Cc1nnc(C2CCC2)o1 (centres undefined),-10.04%
Cc1ccccc1C(NC(=O)NCC1(CO)CC1)C1CC1 (centres undefined),-0.9126%
O=C(O)C(F)(F)F.O=C(O)C(F)(F)F.O=C(O)c1c(-c2cccnc2)ncc2c1CCN(Cc1cccnc1)C2,2.676%
c1ccc(Cn2cc(CNCC3CNc4ccnn4C3)cn2)cc1 (centres undefined),13.71%
Cl.O=C(NCCn1nc(C2CCNC2)c2cccnc21)C1CCC1 (centres undefined),7.131%
O=C1CC2(CCN(Cc3ccoc3)C2)CN1c1cncnc1 (centres undefined),-22.87%
COCC(=O)N1CCC2(C1)c1ccccc1S(=O)(=O)N2CCC(C)C (centres undefined),-3.879%
c1ccc2oc(CN3CCCC3Cn3cncn3)nc2c1 (centres undefined),3.888%
O=C(O)C(F)(F)F.[H][C@@]12CCN(Cc3ccccc3)C[C@]1([H])O[C@H](C(=O)NC1CC1)C2,0.08681%
COCC1CN(C(=O)c2ccoc2)Cc2cnn(CC3CCOCC3)c21.O=C(O)C(F)(F)F (centres undefined),-2.6%
O=C(CCc1cc2n(n1)CCCNC2)N1CCSCC1,-11.58%
[H][C@]12CC[C@]([H])(CN(Cc3cc(C(C)(C)C)[nH]n3)C1)N(Cc1ccccn1)C2,2.308%

Some entries from above, unchanged:

structure,effect
CCN(CC)C(=O)c1nnn(Cc2ccccc2)c1OC,4.605%
CC(C)c1nc(CN(C)C2CCN(CC(F)(F)F)C2)no1 (centres undefined),2.952%
CCN1CCC2(CC1)C(=O)Nc1ccc(C(=O)NC)cc12.O=C(O)C(F)(F)F,-4.825%
c1ccc(Cn2cc(CNCC3CNc4ccnn4C3)cn2)cc1 (centres undefined),13.71%
Clc1ccc(C2NCCc3cc4c(cc32)OCCO4)cc1 (centres undefined),9.282%

Measurements from “University of Dundee, Small-Polar-MMV Screening Library” (2021), ChEMBL document CHEMBL3988442.